The results are deposited in PubChem (AID1347092; NCATS, 2019).

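A673 Ewing sarcoma cells, viability read as ATP-driven CellTiter-Glo luminescence after 48 hours of compound exposure. Compounds were titrated in 8- or 11-point series reaching a top of 46 µM, with the lowest near 0.78 nM for one library. The number is the fitted half-maximal potency (AC50) for a cell-killing curve, and a lower value marks a more potent compound. Calls come from NCATS curve classes and activity scores: actives score 40 to 100, inconclusives 1 to 39, and inactives with curve class 4 score 0.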

Values are in nM. All entries here are filed as inconclusive. Only part of the assay is shown, chiefly results filed as inconclusive. Potencies fitted to partial, single-point or poorly fitting curves are rough. Some entries filed as inconclusive have a full curve. Activity scores are not listed here. An entry listed twice with the same setting is a separate test.

SMILES,fitted potency (nM),remark
COC(=O)C1C2CC3c4[nH]c5cc(OC)ccc5c4CCN3CC2CC(OC(=O)c2cc(OC)c(OC)c(OC)c2)C1OC (centres undefined),29565,"cytotoxic, single point"
O=C(N/N=C/c1ccc([N+](=O)[O-])o1)c1ccc(O)cc1,8414,"cytotoxic, partial curve, poor fit"
Cc1c(N)nc([C@H](CC(N)=O)NC[C@@H](N)C(N)=O)nc1C(=O)N[C@H](C(=O)N[C@@H](C)[C@H](O)[C@@H](C)C(=O)N[C@@H](C(=O)NCCc1nc(-c2nc(C(=O)NCCC[S+](C)C)cs2)cs1)[C@@H](C)O)C(O[C@H]1O[C@H](CO)[C@H](O)[C@@H](O)[C@@H]1O[C@H]1O[C@H](CO)[C@@H](O)[C@H](OC(N)=O)[C@H]1O)c1cnc[nH]1 (some centres undefined),935,"cytotoxic, full curve, poor fit"
COc1ccc2c(c1OC)CN1CCc3cc4c(cc3C1C2)OCO4 (centres undefined),21136,"cytotoxic, partial curve, poor fit"
Clc1ccc(COC(Cn2ccnc2)c2ccc(Cl)cc2Cl)cc1 (centres undefined),33498,"cytotoxic, single point"
Nc1ccc(Sc2ccc(N)cc2)cc1,30637,"cytotoxic, partial curve, poor fit"
CCOC(=O)[C@@H](N)Cc1ccc(-c2cc(O[C@H](c3ccc(Cl)cc3-n3ccc(C)n3)C(F)(F)F)nc(N)n2)cc1,29565,"cytotoxic, single point"
CN1CCC[C@@H]1CCO[C@](C)(c1ccccc1)c1ccc(Cl)cc1,21136,"cytotoxic, single point"
C=CCNc1nc(NCC=C)nc(N2CCN(C(c3ccc(F)cc3)c3ccc(F)cc3)CC2)n1,16788,"cytotoxic, partial curve, poor fit"
Oc1ccc(Cl)cc1Cc1ccccc1,21136,"cytotoxic, single point"
COc1ccc2c(c1OC)CN1CCc3cc4c(cc3C1C2)OCO4 (centres undefined),14817,"cytotoxic, partial curve"
COc1ccc2c(c1)CN(C)CC2c1ccc(Cl)c(Cl)c1 (centres undefined),29565,"cytotoxic, single point"
O=C(CCCN1CC=C(n2c(=O)[nH]c3ccccc32)CC1)c1ccc(F)cc1,33498,"cytotoxic, partial curve, poor fit"
Oc1cc(Cl)ccc1Oc1ccc(Cl)cc1Cl,33498,"cytotoxic, single point"
CC1CCCCN1CCCOC(=O)c1ccc(OC2CCCCC2)cc1 (centres undefined),21136,"cytotoxic, single point"
CCCCCC(=O)O[C@]1(C(C)=O)CC[C@H]2[C@@H]3CCC4=CC(=O)CC[C@]4(C)[C@H]3CC[C@@]21C,33498,"cytotoxic, partial curve, poor fit"
COc1ccc2c(c1OC)C(=O)O[C@@H]2[C@H]1c2c(cc3c(c2OC)OCO3)CCN1C,33498,"cytotoxic, single point"
Clc1ccc(C(OCCN2CCCCC2)c2ccccc2)cc1 (centres undefined),21136,"cytotoxic, partial curve, poor fit"
O=C(Oc1ccc([N+](=O)[O-])cc1)N1CCC(C(O)(c2ccc3c(c2)OCO3)c2ccc3c(c2)OCO3)CC1,9350,"cytotoxic, full curve"
CO/C=C(/C(=O)OC)c1ccccc1Oc1cc(Oc2ccccc2C#N)ncn1,24336,"cytotoxic, partial curve"
Clc1ccc(C(c2ccc(Cl)cc2)C(Cl)(Cl)Cl)cc1,26608,"cytotoxic, single point"
NC(=O)N1c2ccccc2CC(=O)c2ccccc21,33498,"cytotoxic, single point"
CO[C@@H]1[C@@H](O[C@@H]2O[C@H](C)[C@@H](O[C@H]3C[C@@](C)(O)[C@@H](O)[C@H](C)O3)[C@H](N(C)C)[C@H]2O)[C@@H](CC=O)C[C@@H](C)[C@@H](O[C@@H]2CC[C@H](N(C)C)[C@@H](C)O2)/C=C/C=C/C[C@@H](C)OC(=O)C[C@H]1OC(C)=O,16788,"cytotoxic, single point"
CCN(c1ccccc1)c1cc(NC)[n+](C)c(C)n1,14817,"cytotoxic, partial curve"
CN1C[C@H](CNC(=O)OCc2ccccc2)C[C@@H]2c3cccc4c3c(cn4C)C[C@H]21,26608,"cytotoxic, single point"
COc1ccc(/C=C/C(=O)c2ccc(OC)cc2OC)cc1,26608,"cytotoxic, single point"
CCCCCCCCCCCC[N+](C)(C)CCOc1ccccc1,13335,"cytotoxic, partial curve, poor fit"
COc1cc([C@H]2Oc3cc([C@H]4Oc5cc(O)cc(O)c5C(=O)[C@@H]4O)ccc3O[C@@H]2CO)ccc1O,33498,"cytotoxic, single point"
Cc1cc(O)c(C)c(C)c1O,26608,"cytotoxic, single point"
CN1CCN(CCC(=O)N2c3ccccc3Sc3ccc(C(F)(F)F)cc32)CC1,26608,"cytotoxic, single point"
O=C(O)C1CCCN(CCC=C(c2ccccc2)c2ccccc2)C1 (centres undefined),23484,"cytotoxic, single point"
Cc1cccc(N(C)C(=S)Oc2ccc3c(c2)C2CCC3C2)c1 (centres undefined),26608,"cytotoxic, single point"
CC1(C)CNc2cc(NC(=O)c3cccnc3NCc3ccncc3)ccc21,1866,"cytotoxic, full curve, poor fit"
O=C(N[C@@H]1N=C(c2ccccc2F)c2cccc3c2N(CC3)C1=O)c1cc2ccccc2[nH]1,33498,"cytotoxic, single point"
CS(=O)(=O)c1ccc(-c2cnc(N)c(C(=O)Nc3ccccc3)n2)cc1,4686,"cytotoxic, full curve"
CCCCCCCCCCCCCCNCCO,33498,"cytotoxic, single point"
C=C(C)[C@@H]1CC[C@]2(C(=O)O)CC[C@]3(C)[C@H](CC[C@@H]4[C@@]5(C)CC[C@H](O)C(C)(C)[C@@H]5CC[C@]43C)[C@@H]12,3722,"cytotoxic, full curve, poor fit"

4 of the entries, repeated:

- CCOC(=O)[C@@H](N)Cc1ccc(-c2cc(O[C@H](c3ccc(Cl)cc3-n3ccc(C)n3)C(F)(F)F)nc(N)n2)cc1 | fitted potency 29565 nM (cytotoxic, single point)
- CN1CCC[C@@H]1CCO[C@](C)(c1ccccc1)c1ccc(Cl)cc1 | fitted potency 21136 nM (cytotoxic, single point)
- O=C(N[C@@H]1N=C(c2ccccc2F)c2cccc3c2N(CC3)C1=O)c1cc2ccccc2[nH]1 | fitted potency 33498 nM (cytotoxic, single point)
- CS(=O)(=O)c1ccc(-c2cnc(N)c(C(=O)Nc3ccccc3)n2)cc1 | fitted potency 4686 nM (cytotoxic, full curve)